Values of other authors as cited in US5217997A, “Use of L-arginine in the treatment of hypertension and other vascular disorders” (priority 1992, dated 1993).
At least one compound was matched to its structure with a doubt left.

Assays:
renal Na^+ -K^+ -ATPase = details: cited from earlier work
[1] = cited from earlier work

SMILES | renal Na+-K+-ATPase stimulation (renal Na^+ -K^+ -ATPase) | vasoactivity [1]
O=C(O)CCC/C=C\C/C=C\C/C=C\C/C=C\CCCCCO [20-HETE, 20-Hydroxyeicosatetraenoic Acid] | potent renal Na^+ -K^+ -ATPase stimulator | vasoconstrictor
C[C@H](O)CCC/C=C\C/C=C\C/C=C\C/C=C\CCCC(=O)O [19(S)-HETE, 19(S)Hydroxyeicosatetraenoic Acid] | potent renal Na^+ -K^+ -ATPase stimulator | –
